Taken from: PubChem BioAssay AID504786 (Drosophila RNAi Screening Center, 2011)

- Assay: 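Fly genes required for HIF-dependent transcription when hypoxia is mimicked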 (primary screen)
- System: Drosophila S2 cells with a stable HIF luciferase reporter
- Reagents: long dsRNA against Drosophila genes, about 0.2 µg dsRNA per well of a 384-well plate
- Timing: three days of knock-down, then 20 h of DFO before reading
- Challenge: desferrioxamine (DFO) at 100 µM, an iron chelator that mimics hypoxia, for 20 h
- Read-out: 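Firefly luciferase driven by the mouse ldh-a hypoxia-response element, measured after 20 h of 100 µM DFO; z-scores per plate, higher means more signal lost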
- Direction: z-score: higher = stronger loss of HIF reporter signal
The screen tested about 21,000 reagents; shown is a random part of those with a known target gene and a result. 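Primary screen; positive scores mean lost reporter signal, so the sign may be inverted from the usual convention.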 A plus sign joins genes that one reagent is predicted to hit. Not all columns of the deposit are shown.

fabp + sea [DRSC16114] scored z-score, replicate 1 = -0.2.
fabp + sea [DRSC16115] gave z-score, replicate 1 = -0.4.
Knock-down of Ote [DRSC07498] gave: z-score, replicate 1 = -0.2.
For D19B [DRSC11134], the values are z-score, replicate 1 = 0.3.
Against Rca1 [DRSC03407], the values are z-score, replicate 1 = 0.9.
SWIP [DRSC19540] scored z-score, replicate 1 = 0.2.
Against Srp68 [DRSC10475], the entry reads z-score, replicate 1 = -0.6.
For E(spl)mbeta-HLH [DRSC16697] the deposit lists z-score, replicate 1 = -0.3.
After knock-down of CG13228 [DRSC06348], the record shows z-score, replicate 1 = -0.5.
Silencing of PSMG1 [DRSC12297] resulted in: z-score, replicate 1 = -0.4.
For CG14744 [DRSC06480] the deposit lists z-score, replicate 1 = -0.3.
CG11964 [DRSC14447] gave z-score, replicate 1 = -0.3.
Depletion of ND-B18 [DRSC19947] resulted in: z-score, replicate 1 = 0.3.
CG14535 [DRSC02393] scored z-score, replicate 1 = -0.2.
Arr1 [DRSC01867] scored z-score, replicate 1 = 0.
Knock-down of Ugt303A1 [DRSC15641] resulted in: z-score, replicate 1 = -0.1.
After knock-down of CG5262 [DRSC11773] the results were z-score, replicate 1 = -0.4.
Against mag [DRSC11787] the deposit lists z-score, replicate 1 = -0.3.
Fmo-1 [DRSC04328] scored z-score, replicate 1 = -0.2.
Silencing of CG10333 [DRSC02036] gave: z-score, replicate 1 = 1.
With knock-down of CG11414 [DRSC04110] the results were z-score, replicate 1 = -0.3.
CG6614 [DRSC02974] showed z-score, replicate 1 = -0.3.
CG17982 [DRSC18143] scored z-score, replicate 1 = -0.2.
Against Srp72 [DRSC15800], the entry reads z-score, replicate 1 = -0.5.
Silencing of CG13045 [DRSC09926] came out at: z-score, replicate 1 = -0.3.
Against CG14431 [DRSC17925] the deposit lists z-score, replicate 1 = -0.2.
With knock-down of CG14903 [DRSC15024], the screen gave z-score, replicate 1 = -0.1.
With knock-down of CG32642 [DRSC18959] the results were z-score, replicate 1 = -0.3.
Depletion of tsu [DRSC07265] resulted in: z-score, replicate 1 = 0.8.
Orc4 [DRSC04634] showed z-score, replicate 1 = 0.
After knock-down of mats [DRSC13562], the record shows z-score, replicate 1 = -0.7.
mats [DRSC14702] gave z-score, replicate 1 = -0.4.
Jhbp15 [DRSC15217] scored z-score, replicate 1 = -0.4.
Silencing of CG8401 [DRSC07165] resulted in: z-score, replicate 1 = -0.3.
Against CG6071 [DRSC10579], the values are z-score, replicate 1 = -0.2.
Knock-down of CG43325 [DRSC04157] gave: z-score, replicate 1 = -0.4.
After knock-down of Rpn12 [DRSC11275] the results were z-score, replicate 1 = 7.1.
After knock-down of Rpn5 [DRSC12367], the screen gave z-score, replicate 1 = 0.9.
For Atx2 [DRSC15727], the values are z-score, replicate 1 = 5.2.
CG30379 [DRSC05070] showed z-score, replicate 1 = 0.
Depletion of CG42527 (retired record) + Hr4 [DRSC18495] resulted in: z-score, replicate 1 = -0.4.
CG6094 [DRSC02927] showed z-score, replicate 1 = -0.4.
Arc42 [DRSC14340] gave z-score, replicate 1 = -1.2.
Depletion of Arc42 [DRSC15627] came out at: z-score, replicate 1 = -1.2.
PH4alphaMP [DRSC17031] scored z-score, replicate 1 = -0.3.
After knock-down of Octbeta1R [DRSC16134], the record shows z-score, replicate 1 = 0.3.
Gr2a [DRSC18603] gave z-score, replicate 1 = -0.3.
Against CG9344 [DRSC04541], the values are z-score, replicate 1 = -0.2.
Silencing of bsf [DRSC02035] resulted in: z-score, replicate 1 = 0.1.
Wdr37 [DRSC14500] gave z-score, replicate 1 = -0.1.
For peng [DRSC20583], the values are z-score, replicate 1 = 0.2.

Looked up above:
Entry for Gr2a [DRSC18603] in “z-score, replicate 1”: -0.3
For “z-score, replicate 1”, CG6614 [DRSC02974] shows -0.3
For “z-score, replicate 1”, PH4alphaMP [DRSC17031] reads -0.3
Result for mag [DRSC11787] under “z-score, replicate 1”: -0.3
Under “z-score, replicate 1”, Ote [DRSC07498] reads -0.2
Fmo-1 [DRSC04328], z-score, replicate 1 → -0.2
